According to US20160200802A1:
No constants are given. Whether binding was seen depends on the method and setting. A result given as binding can be weak or reduced; the word gives no strength.

B1: HMB2435 (antibody, human IgG1, V domains shown)
VH: QVQLVESGGGVVQPGRPLRLSCAASGFAFNNFALHWVRQAPGKGPEWLAAVSYDGTSPYYAESVRARFSISRDNSKKTFYLQLDSLRPEDTAVYYCARGLGSGSYSWIGYFYAMDVWGRGTTVTVSS
VL: QSALTQPASVSGSPGQSITISCTGTSSDVGGYVYVAWYQQHPGTAPKLIIYDVSDRPSGVSNRFSGSKSGNTASLTISGLQAEDDADYYCISYTDRNTVVFGGGTKLTVL
B2: HMB2416 (antibody, human IgG1, V domains shown)
VH: QVQLQESGPGLVKPSQTLSLTCTVSGGSISSGDYYWSWIRQPPGKGLEWIGYIYFSGSTYYNPSLKSRVTMSGDTSKNQFSLRLSSVTAADTAVYYCAREDTTMAIPYYFDPWGRGILVTVSS
VL: SYVLTQPPSVSVAPGRTARITCGRHNIGNENVHWYQQRPGQAPVLVIYSDSDRPSGIPERFSGSNSGNTATLSISRVEAGDEADYYCQVWDSSTDQVVFGGGTKLTVL
B3: HMB2437 (antibody, human IgG1, V domains shown)
VH: QVTLKESGPVLVKPSETLTLTCTVSGFSLTDARMGVSWIRQPPGKALEWLAHIFSNDEKFYSTSLKTRLTISKDTSTSQVVLRMTNMDPVDTATYYCARVDQGWVNTYSAFYYGMDFWGQGTTVTVSS
VL: DIQMTQSPSSLSASVGERVTITCRASQYISTHLNWYQHKPGKAPRLLIYGASHLEGGDPSRFSGSGSGTDFSLTITSLQPEDFATYYCQQTYKTPITFAQGTRLEIK
B4: HMB2432 (antibody, V domains shown)
VH: EVQLVQSGAEVKKPGTSLKISCKGSGFSFSNYWIGWVRQMPGKGLEWMGIVYPADSDTRYSPSFQGQVTISGDNSINTAYLQWSRLKASDTATYYCVRQIGGVVTTATDDYFYGMDIWGPGTTVIVSS
VL: ETTLTQSPSSLSASVGDRVTITCRASQTVKSFLNWYQQKPGKAPKLLIYDASDLQSGVPSRFSGSGSGTDFTLTISRLQPEDFATYFCQQSYRTPLTFGQGTRVEIK

These binders were tested against stabilized soluble pre-fusion RSV F protein (RSV) (assay: SPR).
In the case of B1, the binding is reported as “binds”. In the case of B2, the binding is reported as “binds”. With B3 the binding was “binds”. In the case of B4, the binding is reported as “binds”.

The binders below were run against stabilized soluble pre-fusion RSV F protein (RSV) (assay: SPR, antibody immobilized, F protein injected).
With B1 the binding was “binds”. B2 was tested, and the binding was “binds”. B3 was tested, and the binding was “binds”. For B4, the binding was “binds”.
